Data as given in paper PMC2904775.
No constants are given. Whether binding was seen depends on the method and setting. Binding seen in cells or lysates may run through a third protein. Where a sequence is shown, tags or fusion partners need not be part of it.

Target: T1, HA-UPF1, Q9FJR0
T1 chain: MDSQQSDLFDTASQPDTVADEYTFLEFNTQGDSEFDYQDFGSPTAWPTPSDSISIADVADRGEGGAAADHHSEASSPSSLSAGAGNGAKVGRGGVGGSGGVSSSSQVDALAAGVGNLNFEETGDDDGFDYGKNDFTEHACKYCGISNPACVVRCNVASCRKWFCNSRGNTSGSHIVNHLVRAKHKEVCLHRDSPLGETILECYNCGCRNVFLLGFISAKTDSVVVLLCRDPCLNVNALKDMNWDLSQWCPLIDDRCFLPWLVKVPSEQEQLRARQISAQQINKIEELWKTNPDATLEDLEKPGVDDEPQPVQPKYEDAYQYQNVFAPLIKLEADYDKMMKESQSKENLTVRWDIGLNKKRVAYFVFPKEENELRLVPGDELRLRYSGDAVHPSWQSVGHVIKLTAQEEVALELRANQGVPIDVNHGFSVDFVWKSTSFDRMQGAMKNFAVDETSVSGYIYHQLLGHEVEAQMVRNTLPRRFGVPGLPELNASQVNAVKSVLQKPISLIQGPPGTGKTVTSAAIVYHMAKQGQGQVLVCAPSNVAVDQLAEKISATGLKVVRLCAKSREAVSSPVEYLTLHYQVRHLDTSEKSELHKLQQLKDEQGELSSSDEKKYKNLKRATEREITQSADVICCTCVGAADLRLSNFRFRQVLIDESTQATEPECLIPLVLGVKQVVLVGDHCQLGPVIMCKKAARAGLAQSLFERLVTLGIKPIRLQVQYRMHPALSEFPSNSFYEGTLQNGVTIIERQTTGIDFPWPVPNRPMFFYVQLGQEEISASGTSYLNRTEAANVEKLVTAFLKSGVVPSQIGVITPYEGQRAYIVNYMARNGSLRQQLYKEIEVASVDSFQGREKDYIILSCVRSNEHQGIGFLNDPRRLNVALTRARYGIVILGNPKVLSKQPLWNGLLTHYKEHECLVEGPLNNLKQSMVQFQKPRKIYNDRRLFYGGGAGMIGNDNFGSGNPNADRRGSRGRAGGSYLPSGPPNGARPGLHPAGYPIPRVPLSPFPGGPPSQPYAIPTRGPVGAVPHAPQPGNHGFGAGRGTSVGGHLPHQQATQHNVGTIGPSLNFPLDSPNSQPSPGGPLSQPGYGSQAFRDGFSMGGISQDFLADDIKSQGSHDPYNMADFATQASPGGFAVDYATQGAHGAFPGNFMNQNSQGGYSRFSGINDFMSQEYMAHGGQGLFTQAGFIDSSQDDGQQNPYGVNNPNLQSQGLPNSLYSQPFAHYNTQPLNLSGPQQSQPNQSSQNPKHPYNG
Assay: co-IP; HA-tagged proteins precipitated with anti-HA beads from extracts of agroinfiltrated N. benthamiana leaves (3 dpi) co-expressing 6×myc-AtAGO1 and GFP-IR; IP buffer 30 mM TRIS pH 7.5, 150 mM NaCl, 5 mM MgCl2, 5 mM DTT, 10% glycerol, 1 hour at 4°C; Western blot with anti-myc and anti-HA
Details: remark: other sources report otherwise

B1: 6×myc-tagged AGO1 of Arabidopsis thaliana (myc-AGO1), O04379 1-1048 (protein)
chain: MVRKRRTDAPSEGGEGSGSREAGPVSGGGRGSQRGGFQQGGGQHQGGRGYTPQPQQGGRGGRGYGQPPQQQQQYGGPQEYQGRGRGGPPHQGGRGGYGGGRGGGPSSGPPQRQSVPELHQATSPTYQAVSSQPTLSEVSPTQVPEPTVLAQQFEQLSVEQGAPSQAIQPIPSSSKAFKFPMRPGKGQSGKRCIVKANHFFAELPDKDLHHYDVTITPEVTSRGVNRAVMKQLVDNYRDSHLGSRLPAYDGRKSLYTAGPLPFNSKEFRINLLDEEVGAGGQRREREFKVVIKLVARADLHHLGMFLEGKQSDAPQEALQVLDIVLRELPTSRYIPVGRSFYSPDIGKKQSLGDGLESWRGFYQSIRPTQMGLSLNIDMSSTAFIEANPVIQFVCDLLNRDISSRPLSDADRVKIKKALRGVKVEVTHRGNMRRKYRISGLTAVATRELTFPVDERNTQKSVVEYFHETYGFRIQHTQLPCLQVGNSNRPNYLPMEVCKIVEGQRYSKRLNERQITALLKVTCQRPIDREKDILQTVQLNDYAKDNYAQEFGIKISTSLASVEARILPPPWLKYHESGREGTCLPQVGQWNMMNKKMINGGTVNNWICINFSRQVQDNLARTFCQELAQMCYVSGMAFNPEPVLPPVSARPEQVEKVLKTRYHDATSKLSQGKEIDLLIVILPDNNGSLYGDLKRICETELGIVSQCCLTKHVFKMSKQYMANVALKINVKVGGRNTVLVDALSRRIPLVSDRPTIIFGADVTHPHPGEDSSPSIAAVVASQDWPEITKYAGLVCAQAHRQELIQDLFKEWKDPQKGVVTGGMIKELLIAFRRSTGHKPLRIIFYRDGVSEGQFYQVLLYELDAIRKACASLEAGYQPPVTFVVVQKRHHTRLFAQNHNDRHSVDRSGNILPGTVVDSKICHPTEFDFYLCSHAGIQGTSRPAHYHVLWDENNFTADGLQSLTNNLCYTYARCTRSVSIVPPAYYAHLAAFRARFYMEPETSDSGSMASGSMARGGGMAGRSTRGPNVNAAVRPLPALKENVKRVMFYC
Q: With B1 as the binder, how does the binding read?
A: no binding
